The supplement of paper PMC9233669
Variants at the floor of the assay are shown more often than the library holds them.

Key:
biotinyl-Trp-oxazolone = experiment: self-aminoacylation, catalytic enhancement (BWO) (fold over background); higher = more active; k-Seq, kA / k0A0; sequences stand for … in GGGAAUGGAUCCACAUCUACGAAUUC…UUCACUGCAGACUUGACGAAGCUG
Outline: (§1)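 The uncatalyzed rate is the low-activity peak of a bimodal Gaussian fit, and catalytic enhancement is median kA divided by it. The kA values came from pseudo-first-order fits, with 1000 bootstraps, of per-sequence fraction reacted measured by streptavidin capture, triplicate qPCR and Illumina sequencing. Mutagenized RNA pools with a 21-nt variable region (0.43 μM) were reacted with each biotinyl-aminoacyl-oxazolone at 2–1250 μM in 50 μL HEPES/NaCl/KCl/MgCl2/CaCl2 buffer with 5% acetonitrile, pH 6.9–7.0, for 90 minutes at room temperature.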

biotinyl-Leu-oxazolone = experiment: self-aminoacylation, catalytic enhancement (BLO) (fold over background); higher = more active; k-Seq, kA / k0A0; sequences stand for … in GGGAAUGGAUCCACAUCUACGAAUUC…UUCACUGCAGACUUGACGAAGCUG
Outline: as §1

biotinyl-Val-oxazolone = experiment: self-aminoacylation, catalytic enhancement (BVO) (fold over background); higher = more active; k-Seq, kA / k0A0; sequences stand for … in GGGAAUGGAUCCACAUCUACGAAUUC…UUCACUGCAGACUUGACGAAGCUG
Outline: as §1

biotinyl-Ile-oxazolone = experiment: self-aminoacylation, catalytic enhancement (BIO) (fold over background); higher = more active; k-Seq, kA / k0A0; sequences stand for … in GGGAAUGGAUCCACAUCUACGAAUUC…UUCACUGCAGACUUGACGAAGCUG
Outline: as §1

biotinyl-Met-oxazolone = experiment: self-aminoacylation, catalytic enhancement (BMO) (fold over background); higher = more active; k-Seq, kA / k0A0; sequences stand for … in GGGAAUGGAUCCACAUCUACGAAUUC…UUCACUGCAGACUUGACGAAGCUG
Outline: as §1

biotinyl-Phe-oxazolone = experiment: self-aminoacylation, catalytic enhancement (BFO) (fold over background); higher = more active; k-Seq, kA / k0A0; sequences stand for … in GGGAAUGGAUCCACAUCUACGAAUUC…UUCACUGCAGACUUGACGAAGCUG
Outline: as §1

Sequence	self-aminoacylation (biotinyl-Trp-oxazolone)	self-aminoacylation (biotinyl-Leu-oxazolone)	self-aminoacylation (biotinyl-Val-oxazolone)	self-aminoacylation (biotinyl-Ile-oxazolone)	self-aminoacylation (biotinyl-Met-oxazolone)	self-aminoacylation (biotinyl-Phe-oxazolone)
CUACUCCAAACAAUCGGUAUG [Fam1A.1 aminoacylation ribozyme variant]	0.497	0.875	0.715	0.632	0.698	1.57
CUACUCCAAACAUUCGGUCUG [Fam1A.1 aminoacylation ribozyme variant]	0.949	1.6	1.46	1.25	1.26	1.06
CUACUGCAAACAAUCGGUCAG [Fam1A.1 aminoacylation ribozyme variant]	0.741	0.699	0.748	0.788	0.727	0.763
CUACUGCAUACAAUCGGUCUG [Fam1A.1 aminoacylation ribozyme variant]	0.659	0.577	0.643	0.677	0.612	0.959
CUACUUAAAACAAUCGAUCUG [Fam1A.1 aminoacylation ribozyme variant]	0.79	0.536	0.844	0.761	0.737	0.806
CUACUUAAAACAAUCGGACUG [Fam1A.1 aminoacylation ribozyme variant]	0.489	0.75	0.613	0.643	0.795	0.651
CUACUUAACACAAUCGGUCUG [Fam1A.1 aminoacylation ribozyme variant]	0.779	0.743	0.95	0.849	0.853	0.671
CUACUUAGAACAAUCGGUCUG [Fam1A.1 aminoacylation ribozyme variant]	0.413	0.713	0.614	0.528	0.6	0.419
CUACUUCAAAAAAUCGGUCUG [Fam1A.1 aminoacylation ribozyme variant]	7.37	0.92	0.795	1	0.758	11.8
CUACUUCAAACAAAUGGUCUG [Fam1A.1 aminoacylation ribozyme variant]	0.587	0.719	0.735	0.86	0.576	0.655
CUACUUCAAACAACCGAUCUG [Fam1A.1 aminoacylation ribozyme variant]	0.363	0.544	0.669	0.655	0.6	0.821
CUACUUCAAACAACCGGUCUA [Fam1A.1 aminoacylation ribozyme variant]	1.08	0.908	1.01	1.06	0.721	1.01
CUACUUCAAACAACCGGUCUG [Fam1A.1 aminoacylation ribozyme variant]	0.844	0.791	0.845	0.874	0.729	1.07
CUACUUCAAACAAUAGCUCUG [Fam1A.1 aminoacylation ribozyme variant]	0.36	0.515	0.584	0.676	0.482	0.637
CUACUUCAAACAAUCAGUCUC [Fam1A.1 aminoacylation ribozyme variant]	8	0.872	0.904	0.833	0.723	25.9
CUACUUCAAACAAUCCGUGUG [Fam1A.1 aminoacylation ribozyme variant]	2.52	3.84	1.88	1.99	2.86	7.45
CUACUUCAAACAAUCGCACUG [Fam1A.1 aminoacylation ribozyme variant]	0.99	1.58	0.938	1.31	1.43	1.8
CUACUUCAAACAAUCGGACCG [Fam1A.1 aminoacylation ribozyme variant]	0.753	0.612	0.839	0.711	0.683	1.35
CUACUUCAAACAAUCGGACGG [Fam1A.1 aminoacylation ribozyme variant]	0.576	0.662	0.858	0.783	0.768	0.592
CUACUUCAAACAAUCGGGCUG [Fam1A.1 aminoacylation ribozyme variant]	9.43	1.32	1.14	1.17	0.998	13.2
CUACUUCAAACAAUCGGUCGA [Fam1A.1 aminoacylation ribozyme variant]	6.82	0.992	0.974	0.884	0.807	14.9
